{"sequences": {"note": "Sequences of proteins named here, by UniProt entry; tags and fusion partners are left off.", "UniProt Q9H1D9": "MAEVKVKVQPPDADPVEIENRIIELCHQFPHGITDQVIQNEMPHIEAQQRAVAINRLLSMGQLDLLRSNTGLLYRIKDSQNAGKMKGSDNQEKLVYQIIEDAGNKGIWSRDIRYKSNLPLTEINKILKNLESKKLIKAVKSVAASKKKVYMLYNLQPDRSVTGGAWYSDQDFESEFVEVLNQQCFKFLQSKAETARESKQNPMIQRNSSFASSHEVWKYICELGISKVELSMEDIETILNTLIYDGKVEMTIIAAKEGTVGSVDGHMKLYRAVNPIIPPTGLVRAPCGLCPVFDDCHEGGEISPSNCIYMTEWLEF"}, "source": "paper PMC6511871", "binders": {"B1": {"name": "RNA polymerase III catalytic subunit (POLR3A) (protein, UniProt O14802 1-1390)", "chain": "MVKEQFRETDVAKKISHICFGMKSPEEMRQQAHIQVVSKNLYSQDNQHAPLLYGVLDHRMGTSEKDRPCETCGKNLADCLGHYGYIDLELPCFHVGYFRAVIGILQMICKTCCHIMLSQEEKKQFLDYLKRPGLTYLQKRGLKKKISDKCRKKNICHHCGAFNGTVKKCGLLKIIHEKYKTNKKVVDPIVSNFLQSFETAIEHNKEVEPLLGRAQENLNPLVVLNLFKRIPAEDVPLLLMNPEAGKPSDLILTRLLVPPLCIRPSVVSDLKSGTNEDDLTMKLTEIIFLNDVIKKHRISGAKTQMIMEDWDFLQLQCALYINSELSGIPLNMAPKKWTRGFVQRLKGKQGRFRGNLSGKRVDFSGRTVISPDPNLRIDEVAVPVHVAKILTFPEKVNKANINFLRKLVQNGPEVHPGANFIQQRHTQMKRFLKYGNREKMAQELKYGDIVERHLIDGDVVLFNRQPSLHKLSIMAHLARVKPHRTFRFNECVCTPYNADFDGDEMNLHLPQTEEAKAEALVLMGTKANLVTPRNGEPLIAAIQDFLTGAYLLTLKDTFFDRAKACQIIASILVGKDEKIKVRLPPPTILKPVTLWTGKQIFSVILRPSDDNPVRANLRTKGKQYCGKGEDLCANDSYVTIQNSELMSGSMDKGTLGSGSKNNIFYILLRDWGQNEAADAMSRLARLAPVYLSNRGFSIGIGDVTPGQGLLKAKYELLNAGYKKCDEYIEALNTGKLQQQPGCTAEETLEALILKELSVIRDHAGSACLRELDKSNSPLTMALCGSKGSFINISQMIACVGQQAISGSRVPDGFENRSLPHFEKHSKLPAAKGFVANSFYSGLTPTEFFFHTMAGREGLVDTAVKTAETGYMQRRLVKSLEDLCSQYDLTVRSSTGDIIQFIYGGDGLDPAAMEGKDEPLEFKRVLDNIKAVFPCPSEPALSKNELILTTESIMKKSEFLCCQDSFLQEIKKFIKGVSEKIKKTRDKYGINDNGTTEPRVLYQLDRITPTQVEKFLETCRDKYMRAQMEPGSAVGALCAQSIGEPGTQMTLKTFHFAGVASMNITLGVPRIKEIINASKAISTPIITAQLDKDDDADYARLVKGRIEKTLLGEISEYIEEVFLPDDCFILVKLSLERIRLLRLEVNAETVRYSICTSKLRVKPGDVAVHGEAVVCVTPRENSKSSMYYVLQFLKEDLPKVVVQGIPEVSRAVIHIDEQSGKEKYKLLVEGDNLRAVMATHGVKGTRTTSNNTYEVEKTLGIEAARTTIINEIQYTMVNHGMSIDRRHVMLLSDLMTYKGEVLGITRFGLAKMKESVLMLASFEKTADHLFDAAYFGQKDSVCGVSECIIMGIPMNIGTGLFKLLHKADRDPNPPKRPLIFDTNEFHIPLVT"}}, "molecular_target": "HaloTag-POLR3F (human) (UniProt Q9H1D9)", "test": "pull-down; HaloTag fusion covalently captured from 293A cell lysate on HaloLink resin (30 min, room temperature), five washes with PD Washing Buffer, non-covalently associated proteins eluted by boiling in Laemmli sample buffer, western blot for POLR3A", "note": "These are yes or no findings as the source states them, for the method shown. Binding seen in cells or lysates may run through a third protein. Some entries that bind do so weakly or less than the wild type.", "data": [{"binder": "B1", "values": [{"measurement": "binding", "result": "binds"}]}]}
